The results in this text go back to the supplement of paper PMC11006884.

By UniProt entry, the sequences of proteins in these tests, tags left out. Where a name states a change or a piece, a line headed by the entry shows the natural chain unless it says otherwise.
UniProt O43353, whole entry, looked up: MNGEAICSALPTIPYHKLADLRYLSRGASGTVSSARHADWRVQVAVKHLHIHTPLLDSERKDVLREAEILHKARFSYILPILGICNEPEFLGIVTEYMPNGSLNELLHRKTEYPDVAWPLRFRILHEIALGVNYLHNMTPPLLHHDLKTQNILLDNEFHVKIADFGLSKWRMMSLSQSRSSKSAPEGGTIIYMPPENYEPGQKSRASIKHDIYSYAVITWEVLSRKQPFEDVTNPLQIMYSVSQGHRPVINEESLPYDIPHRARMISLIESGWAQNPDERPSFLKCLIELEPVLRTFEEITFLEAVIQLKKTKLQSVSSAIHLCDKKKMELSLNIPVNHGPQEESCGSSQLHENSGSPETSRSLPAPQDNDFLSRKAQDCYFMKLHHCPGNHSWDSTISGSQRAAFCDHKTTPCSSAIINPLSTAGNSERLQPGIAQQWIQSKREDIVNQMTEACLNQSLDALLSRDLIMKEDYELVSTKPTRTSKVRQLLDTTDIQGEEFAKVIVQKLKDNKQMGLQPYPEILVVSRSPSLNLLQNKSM
UniProt O75663: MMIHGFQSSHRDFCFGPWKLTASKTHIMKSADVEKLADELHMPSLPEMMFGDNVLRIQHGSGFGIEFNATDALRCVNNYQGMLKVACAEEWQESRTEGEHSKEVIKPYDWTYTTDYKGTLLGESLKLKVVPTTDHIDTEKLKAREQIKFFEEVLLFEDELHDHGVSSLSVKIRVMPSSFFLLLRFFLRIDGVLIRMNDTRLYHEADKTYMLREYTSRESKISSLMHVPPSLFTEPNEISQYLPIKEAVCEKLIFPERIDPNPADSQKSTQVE
UniProt O75369, whole entry, looked up: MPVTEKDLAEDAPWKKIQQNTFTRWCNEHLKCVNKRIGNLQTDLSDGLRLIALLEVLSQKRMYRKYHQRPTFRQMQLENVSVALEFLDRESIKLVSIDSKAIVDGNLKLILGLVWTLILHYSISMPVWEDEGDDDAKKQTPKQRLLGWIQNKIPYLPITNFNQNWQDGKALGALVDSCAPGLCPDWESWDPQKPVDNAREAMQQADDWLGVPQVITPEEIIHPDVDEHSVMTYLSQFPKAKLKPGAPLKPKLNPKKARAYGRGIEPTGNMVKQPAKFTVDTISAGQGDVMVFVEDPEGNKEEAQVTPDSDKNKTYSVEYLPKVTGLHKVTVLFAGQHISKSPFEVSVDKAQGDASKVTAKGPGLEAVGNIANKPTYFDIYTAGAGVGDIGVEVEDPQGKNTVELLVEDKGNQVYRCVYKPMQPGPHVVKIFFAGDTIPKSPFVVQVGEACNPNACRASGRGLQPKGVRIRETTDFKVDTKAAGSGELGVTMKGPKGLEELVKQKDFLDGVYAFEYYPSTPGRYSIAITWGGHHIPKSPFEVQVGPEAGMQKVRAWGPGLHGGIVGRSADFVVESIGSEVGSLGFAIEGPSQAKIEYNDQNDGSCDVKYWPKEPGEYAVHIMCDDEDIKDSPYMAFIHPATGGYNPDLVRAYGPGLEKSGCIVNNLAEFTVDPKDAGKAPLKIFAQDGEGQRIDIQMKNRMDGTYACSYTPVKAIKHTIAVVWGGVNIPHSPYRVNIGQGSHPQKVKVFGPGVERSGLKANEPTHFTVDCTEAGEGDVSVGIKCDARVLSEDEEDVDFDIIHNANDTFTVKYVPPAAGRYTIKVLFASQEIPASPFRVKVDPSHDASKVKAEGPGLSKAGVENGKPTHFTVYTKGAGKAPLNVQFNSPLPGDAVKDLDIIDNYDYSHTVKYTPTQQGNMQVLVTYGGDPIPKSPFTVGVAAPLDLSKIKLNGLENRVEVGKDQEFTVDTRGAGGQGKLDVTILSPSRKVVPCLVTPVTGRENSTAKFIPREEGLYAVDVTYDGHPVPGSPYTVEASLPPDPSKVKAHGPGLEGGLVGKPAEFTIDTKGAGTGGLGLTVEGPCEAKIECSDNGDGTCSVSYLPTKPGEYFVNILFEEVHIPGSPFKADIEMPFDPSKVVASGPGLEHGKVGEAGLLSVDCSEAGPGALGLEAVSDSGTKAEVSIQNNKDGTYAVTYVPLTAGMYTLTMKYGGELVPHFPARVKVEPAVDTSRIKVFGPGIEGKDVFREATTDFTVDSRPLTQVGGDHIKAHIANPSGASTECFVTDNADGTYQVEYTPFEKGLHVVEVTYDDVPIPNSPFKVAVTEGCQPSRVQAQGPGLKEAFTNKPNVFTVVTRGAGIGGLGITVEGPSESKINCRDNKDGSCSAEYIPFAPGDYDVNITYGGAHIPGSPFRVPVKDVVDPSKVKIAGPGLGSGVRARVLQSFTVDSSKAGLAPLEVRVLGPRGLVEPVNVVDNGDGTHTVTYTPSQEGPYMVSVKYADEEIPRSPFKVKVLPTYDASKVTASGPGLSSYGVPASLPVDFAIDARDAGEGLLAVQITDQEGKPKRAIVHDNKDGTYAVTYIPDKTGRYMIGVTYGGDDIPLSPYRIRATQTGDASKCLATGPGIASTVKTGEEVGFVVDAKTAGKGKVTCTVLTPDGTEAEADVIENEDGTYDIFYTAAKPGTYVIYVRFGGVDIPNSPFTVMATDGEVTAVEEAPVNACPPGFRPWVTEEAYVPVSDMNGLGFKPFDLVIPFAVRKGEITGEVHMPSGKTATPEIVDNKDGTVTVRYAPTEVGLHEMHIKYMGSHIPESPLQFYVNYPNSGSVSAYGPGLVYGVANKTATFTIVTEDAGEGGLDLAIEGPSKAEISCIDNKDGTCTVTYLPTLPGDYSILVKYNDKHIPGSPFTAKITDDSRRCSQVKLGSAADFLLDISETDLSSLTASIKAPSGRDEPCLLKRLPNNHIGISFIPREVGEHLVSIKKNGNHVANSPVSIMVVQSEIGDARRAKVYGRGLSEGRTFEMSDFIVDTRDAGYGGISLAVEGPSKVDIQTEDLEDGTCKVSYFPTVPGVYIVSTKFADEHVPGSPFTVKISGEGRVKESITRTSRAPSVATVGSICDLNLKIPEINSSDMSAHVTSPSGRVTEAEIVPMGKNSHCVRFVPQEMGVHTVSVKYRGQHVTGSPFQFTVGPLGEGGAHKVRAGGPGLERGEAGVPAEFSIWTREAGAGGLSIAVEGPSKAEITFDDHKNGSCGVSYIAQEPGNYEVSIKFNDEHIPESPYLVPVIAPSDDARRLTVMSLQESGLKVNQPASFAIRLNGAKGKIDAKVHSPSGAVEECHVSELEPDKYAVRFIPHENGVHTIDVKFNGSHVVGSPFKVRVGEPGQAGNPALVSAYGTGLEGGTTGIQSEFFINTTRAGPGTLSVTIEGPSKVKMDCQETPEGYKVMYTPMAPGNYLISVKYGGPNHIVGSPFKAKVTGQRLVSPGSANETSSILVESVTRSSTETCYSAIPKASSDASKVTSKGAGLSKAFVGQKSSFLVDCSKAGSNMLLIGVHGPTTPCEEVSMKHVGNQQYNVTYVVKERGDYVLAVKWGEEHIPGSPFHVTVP
UniProt O75351, whole entry: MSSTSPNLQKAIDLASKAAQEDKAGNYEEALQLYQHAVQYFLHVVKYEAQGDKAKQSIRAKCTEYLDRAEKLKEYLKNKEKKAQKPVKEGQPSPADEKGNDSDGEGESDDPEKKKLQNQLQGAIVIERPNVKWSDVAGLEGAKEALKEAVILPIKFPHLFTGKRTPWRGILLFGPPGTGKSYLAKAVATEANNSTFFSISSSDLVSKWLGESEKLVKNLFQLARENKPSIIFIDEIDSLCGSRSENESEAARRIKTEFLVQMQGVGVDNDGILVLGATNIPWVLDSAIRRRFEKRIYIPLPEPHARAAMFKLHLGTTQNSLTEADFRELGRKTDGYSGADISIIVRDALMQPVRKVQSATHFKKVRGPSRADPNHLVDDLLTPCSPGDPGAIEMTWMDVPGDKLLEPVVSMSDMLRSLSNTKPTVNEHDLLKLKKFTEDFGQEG
UniProt O75348, whole entry, looked up: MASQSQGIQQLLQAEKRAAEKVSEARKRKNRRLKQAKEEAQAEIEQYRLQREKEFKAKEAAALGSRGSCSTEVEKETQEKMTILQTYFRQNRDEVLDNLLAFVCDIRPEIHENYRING
UniProt O43747: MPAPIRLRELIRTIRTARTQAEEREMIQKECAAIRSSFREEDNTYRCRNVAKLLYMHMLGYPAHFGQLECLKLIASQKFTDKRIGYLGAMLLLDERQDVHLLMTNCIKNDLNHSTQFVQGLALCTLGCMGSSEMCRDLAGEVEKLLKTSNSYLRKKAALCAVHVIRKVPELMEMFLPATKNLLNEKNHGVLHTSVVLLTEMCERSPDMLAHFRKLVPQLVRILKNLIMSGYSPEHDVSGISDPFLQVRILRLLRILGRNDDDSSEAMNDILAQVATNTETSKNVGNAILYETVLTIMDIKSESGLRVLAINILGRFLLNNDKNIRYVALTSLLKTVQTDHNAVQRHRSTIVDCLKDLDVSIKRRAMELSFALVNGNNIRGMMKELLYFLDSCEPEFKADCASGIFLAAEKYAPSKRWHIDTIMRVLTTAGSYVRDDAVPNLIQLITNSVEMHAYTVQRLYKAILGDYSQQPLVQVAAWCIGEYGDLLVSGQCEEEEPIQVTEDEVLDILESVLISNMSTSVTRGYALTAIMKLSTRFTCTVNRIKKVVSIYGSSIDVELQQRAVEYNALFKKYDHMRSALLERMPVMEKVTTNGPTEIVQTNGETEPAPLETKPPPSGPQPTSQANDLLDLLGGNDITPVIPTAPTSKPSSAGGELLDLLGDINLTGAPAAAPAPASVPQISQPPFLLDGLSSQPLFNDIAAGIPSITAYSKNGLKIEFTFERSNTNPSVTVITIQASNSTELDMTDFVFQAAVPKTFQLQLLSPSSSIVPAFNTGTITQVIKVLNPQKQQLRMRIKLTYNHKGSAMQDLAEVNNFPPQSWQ
UniProt O94762: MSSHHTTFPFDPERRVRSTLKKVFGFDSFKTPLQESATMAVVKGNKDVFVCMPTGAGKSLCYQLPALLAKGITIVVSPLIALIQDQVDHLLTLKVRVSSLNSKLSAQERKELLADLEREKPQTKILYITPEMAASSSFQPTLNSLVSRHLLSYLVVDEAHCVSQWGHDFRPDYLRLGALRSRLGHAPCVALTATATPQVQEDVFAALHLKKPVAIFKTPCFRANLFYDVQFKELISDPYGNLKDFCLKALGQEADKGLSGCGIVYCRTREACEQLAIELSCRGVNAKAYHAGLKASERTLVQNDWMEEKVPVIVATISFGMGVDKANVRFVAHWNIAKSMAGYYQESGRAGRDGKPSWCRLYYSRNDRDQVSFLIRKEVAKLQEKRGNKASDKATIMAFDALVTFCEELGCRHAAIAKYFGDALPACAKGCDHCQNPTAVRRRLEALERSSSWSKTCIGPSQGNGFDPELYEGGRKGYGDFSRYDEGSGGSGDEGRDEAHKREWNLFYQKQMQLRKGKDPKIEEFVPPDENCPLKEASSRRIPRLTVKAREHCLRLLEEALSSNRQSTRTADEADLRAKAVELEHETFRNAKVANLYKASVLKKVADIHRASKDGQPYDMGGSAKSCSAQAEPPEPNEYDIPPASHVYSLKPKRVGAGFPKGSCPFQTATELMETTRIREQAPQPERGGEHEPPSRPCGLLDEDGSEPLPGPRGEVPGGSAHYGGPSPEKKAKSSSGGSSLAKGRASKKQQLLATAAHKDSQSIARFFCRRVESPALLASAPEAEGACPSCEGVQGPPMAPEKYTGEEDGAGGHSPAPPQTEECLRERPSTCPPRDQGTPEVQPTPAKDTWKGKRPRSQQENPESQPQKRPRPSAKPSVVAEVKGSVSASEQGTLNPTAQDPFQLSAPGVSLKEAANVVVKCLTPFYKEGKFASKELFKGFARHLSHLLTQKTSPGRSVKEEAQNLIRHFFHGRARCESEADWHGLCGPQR
UniProt O75414: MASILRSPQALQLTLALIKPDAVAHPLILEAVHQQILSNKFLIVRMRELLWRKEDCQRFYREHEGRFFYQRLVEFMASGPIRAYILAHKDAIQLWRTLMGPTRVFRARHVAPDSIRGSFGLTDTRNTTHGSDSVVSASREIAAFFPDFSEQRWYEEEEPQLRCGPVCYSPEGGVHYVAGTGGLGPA
UniProt O43516: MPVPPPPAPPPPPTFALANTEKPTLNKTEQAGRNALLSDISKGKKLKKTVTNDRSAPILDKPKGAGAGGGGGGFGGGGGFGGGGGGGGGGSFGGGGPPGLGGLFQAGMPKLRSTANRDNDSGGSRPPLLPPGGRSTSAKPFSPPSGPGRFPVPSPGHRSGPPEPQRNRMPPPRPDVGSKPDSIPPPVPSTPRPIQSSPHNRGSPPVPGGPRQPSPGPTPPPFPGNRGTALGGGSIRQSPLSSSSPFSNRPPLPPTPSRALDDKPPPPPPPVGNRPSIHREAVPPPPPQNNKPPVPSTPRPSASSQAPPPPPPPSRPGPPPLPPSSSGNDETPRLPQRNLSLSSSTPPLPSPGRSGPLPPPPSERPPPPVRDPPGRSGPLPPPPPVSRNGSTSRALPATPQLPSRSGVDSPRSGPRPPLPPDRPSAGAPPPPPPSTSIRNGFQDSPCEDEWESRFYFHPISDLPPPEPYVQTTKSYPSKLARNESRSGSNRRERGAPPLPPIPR

The list shows a part of the results, in another mix than the full data.

Compound in the assay: COC(=O)C#Cc1ccccc1 [methyl 3-phenylpropiolate]
The experiment in a line: log2 ratio of iodoacetamide-alkyne labeling of the cysteine site, DMSO over compound (competition); higher = stronger covalent engagement of the cysteine by the compound, active = 1 or more. Conditions: 500 µM; treatment time 1 h; system: HEK293T cell lysate. A digest of the protocol: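 HEK293T lysate (2 mg/mL) was treated with DMSO or electrophile (500 µM, 1 h, ambient temperature), then iodoacetamide alkyne (1 h), clicked to sCIP-TMT reagents, pooled, trypsin-digested overnight at 37 °C, streptavidin-enriched and acid-eluted. Peptides were run on Orbitrap Eclipse LC-MS/MS with FAIMS and quantified in FragPipe. The log2 competition ratio per cysteine is mean control-channel over mean compound-channel reporter intensity. Duplicate channels and three replicates were used, and cysteines quantified in only one replicate were excluded.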
Consider PMPCB C419 (UniProt O75439), for which the “log2 ratio of iodoacetamide-alkyne labeling” value (“log2 ratio” for short) was inactive: 0.112.

As for FOXO3 C31 (UniProt O43524), the “log2 ratio” value was inactive: 0.268.

On to TBC1D4 C316 (UniProt O60343), for which the “log2 ratio” value is inactive: 0.877.

For the target KIN C212 (UniProt O60870), the “log2 ratio” value is inactive: 0.348.

Take RIPK2 C414 (UniProt O43353): the “log2 ratio” value was active: 1.35.

In the case of PAPSS1 C165 (UniProt O43252), the “log2 ratio” value is inactive: 0.0259.

On to PAPSS1 C212 (UniProt O43252), for which the “log2 ratio” value is inactive: -0.125.

In the case of SNRNP200 C742 (UniProt O75643), the “log2 ratio” value was inactive: 0.0852.

Regarding SMARCA5 C165 (UniProt O60264), the “log2 ratio” value was inactive: 0.251.

Turning to TIPRL C14 (UniProt O75663), the “log2 ratio” value is inactive: 0.121.

Consider SNRNP200 C133 (UniProt O75643), for which the “log2 ratio” value was inactive: 0.0987.

UniProt O43432_C638: the “log2 ratio” value was inactive: 0.00803.

For SF3B1 C1059 (UniProt O75533), the “log2 ratio” value is inactive: 0.247.

Turning to FLNB C2501 (UniProt O75369), the “log2 ratio” value was inactive: 0.346.

Turning to PMPCB C265 (UniProt O75439), the “log2 ratio” value is inactive: -0.317.

Consider VPS4B C240 (UniProt O75351), for which the “log2 ratio” value was inactive: 0.188.

Turning to ATP6V1G1 C69 (UniProt O75348), the “log2 ratio” value was inactive: 0.555.

Turning to UniProt O75153_C333, the “log2 ratio” value was inactive: 0.499.

Regarding TBC1D4 C753 (UniProt O60343), the “log2 ratio” value was inactive: 0.981.

For the target AP1G1 C31 (UniProt O43747), the “log2 ratio” value was inactive: 0.0722.

Regarding ACTN4 C351 (UniProt O43707), the “log2 ratio” value was inactive: 0.157.

As for RECQL5 C457 (UniProt O94762), the “log2 ratio” value was inactive: 0.793.

Turning to ROCK2 C247 (UniProt O75116), the “log2 ratio” value is inactive: -0.179.

On to ACTN4 C499 (UniProt O43707), for which the “log2 ratio” value is inactive: 0.424.

With UniProt O43432_C461, the “log2 ratio” value was inactive: 0.428.

Take ZW10 C588 (UniProt O43264): the “log2 ratio” value was inactive: 0.467.

With UniProt O75192_C203, the “log2 ratio” value is inactive: 0.0851.

Regarding IDH3B C233 (UniProt O43837), the “log2 ratio” value is inactive: 0.394.

With NME6 C163 (UniProt O75414), the “log2 ratio” value is inactive: 0.347.

Consider FLNB C991 (UniProt O75369), for which the “log2 ratio” value is inactive: 0.0508.

As for SRGAP2 C893 (UniProt O75044), the “log2 ratio” value was inactive: 0.647.

For the target SRGAP2 C98 (UniProt O75044), the “log2 ratio” value was inactive: 0.331.

In the case of UniProt O43776_C537, the “log2 ratio” value is inactive: 0.106.

On to WIPF1 C446 (UniProt O43516), for which the “log2 ratio” value was inactive: 0.707.

Take UniProt O75153_C153: the “log2 ratio” value was inactive: 0.605.

Regarding ACSL4 C420 (UniProt O60488), the “log2 ratio” value was inactive: 0.453.

With FLNB C2115 (UniProt O75369), the “log2 ratio” value is inactive: 0.51.
